No constants are given. Whether binding was seen depends on the method and setting. In cells and extracts the contact can be indirect. Some results given as binding are weak or reduced against the parent protein; the word gives no strength.

Sequences of proteins named here, by UniProt entry; tags and fusion partners are left off.
UniProt P05556: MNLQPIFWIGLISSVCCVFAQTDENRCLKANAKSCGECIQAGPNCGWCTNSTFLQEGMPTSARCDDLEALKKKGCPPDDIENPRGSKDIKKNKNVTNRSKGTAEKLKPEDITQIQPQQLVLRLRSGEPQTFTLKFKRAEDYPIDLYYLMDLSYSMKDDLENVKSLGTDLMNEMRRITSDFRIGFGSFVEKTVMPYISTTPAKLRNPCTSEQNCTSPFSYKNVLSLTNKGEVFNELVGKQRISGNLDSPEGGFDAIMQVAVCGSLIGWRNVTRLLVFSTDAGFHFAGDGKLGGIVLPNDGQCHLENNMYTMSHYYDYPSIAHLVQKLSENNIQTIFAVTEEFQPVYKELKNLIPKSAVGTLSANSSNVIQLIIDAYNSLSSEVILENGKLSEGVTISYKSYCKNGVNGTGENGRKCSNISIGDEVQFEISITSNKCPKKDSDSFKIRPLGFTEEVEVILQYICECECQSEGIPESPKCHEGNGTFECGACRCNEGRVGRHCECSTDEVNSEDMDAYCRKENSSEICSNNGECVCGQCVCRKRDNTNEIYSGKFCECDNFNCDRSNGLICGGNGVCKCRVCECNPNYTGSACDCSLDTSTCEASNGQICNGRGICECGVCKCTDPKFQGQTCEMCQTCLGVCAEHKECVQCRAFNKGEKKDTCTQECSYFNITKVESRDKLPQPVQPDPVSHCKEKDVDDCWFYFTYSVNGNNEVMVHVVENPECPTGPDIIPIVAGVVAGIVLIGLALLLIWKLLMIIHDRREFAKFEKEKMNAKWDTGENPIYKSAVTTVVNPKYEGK

For the experiment, the target named is Integrin β1 (human (endogenous in T4121 and T387 GSCs)) (UniProt P05556). The experiment is described as follows: co-IP; lysates of T4121 or T387 GSCs transduced with WISP1 overexpression lentivirus; IP lysis buffer (50 mM Tris-HCl pH 7.8, 137 mM NaCl, 1 mM EDTA, 1% Triton X-100, 10% glycerol); IP with anti-Integrin α6 or anti-Integrin β1 antibody or isotype IgG overnight at 4 °C, protein A/G Plus agarose; immunoblot with anti-WISP1, anti-Integrin α6 and anti-Integrin β1. For orientation: A western blot detects proteins with antibodies after separation by electrophoresis.

B1: Wnt-induced signaling protein 1 (WISP1) (ligand, UniProt O95388 23-367)
chain: TALSPAPTTMDFTPAPLEDTSSRPQFCKWPCECPPSPPRCPLGVSLITDGCECCKMCAQQLGDNCTEAAICDPHRGLYCDYSGDRPRYAIGVCAQVVGVGCVLDGVRYNNGQSFQPNCKYNCTCIDGAVGCTPLCLRVRPPRLWCPHPRRVSIPGHCCEQWVCEDDAKRPRKTAPRDTGAFDAVGEVEAWHRNCIAYTSPWSPCSTSCGLGVSTRISNVNAQCWPEQESRLCNLRPCDVDIHTLIKAGKKCLAVYQPEASMNFTLAGCISTRSYQPKYCGVCMDNRCCIPYKSKTIDVSFQCPDGLGFSRQVLWINACFCNLSCRNPNDIFADLESYPDFSEIAN
Take B1: the binding result is “binds”.

Source of the values: PMC7295765.
